According to publication PMC10362570:
Results are given in words; binding and its absence hold for the method and conditions named. In cells and extracts the contact can be indirect.

The chains behind the UniProt entries cited, without tags or fusion partners. Where a name states a change or a piece, a line headed by the entry shows the natural chain unless it says otherwise. Residues count along the entry.
UniProt P98153, residues 22-550: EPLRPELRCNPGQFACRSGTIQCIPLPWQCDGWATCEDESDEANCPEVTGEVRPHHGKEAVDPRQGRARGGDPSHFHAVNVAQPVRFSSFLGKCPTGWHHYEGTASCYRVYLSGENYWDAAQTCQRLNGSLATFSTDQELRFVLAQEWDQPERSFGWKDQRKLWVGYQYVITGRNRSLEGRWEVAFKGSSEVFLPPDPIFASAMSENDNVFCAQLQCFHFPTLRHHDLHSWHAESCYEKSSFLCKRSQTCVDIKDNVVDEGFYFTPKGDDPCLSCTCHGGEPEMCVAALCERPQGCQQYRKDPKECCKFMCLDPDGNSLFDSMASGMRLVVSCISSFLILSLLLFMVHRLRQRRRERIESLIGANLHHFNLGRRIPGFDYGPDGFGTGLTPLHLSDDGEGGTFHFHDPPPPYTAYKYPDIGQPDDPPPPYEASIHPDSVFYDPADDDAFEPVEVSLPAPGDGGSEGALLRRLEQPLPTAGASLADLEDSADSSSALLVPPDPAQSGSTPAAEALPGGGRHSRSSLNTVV
UniProt P15116: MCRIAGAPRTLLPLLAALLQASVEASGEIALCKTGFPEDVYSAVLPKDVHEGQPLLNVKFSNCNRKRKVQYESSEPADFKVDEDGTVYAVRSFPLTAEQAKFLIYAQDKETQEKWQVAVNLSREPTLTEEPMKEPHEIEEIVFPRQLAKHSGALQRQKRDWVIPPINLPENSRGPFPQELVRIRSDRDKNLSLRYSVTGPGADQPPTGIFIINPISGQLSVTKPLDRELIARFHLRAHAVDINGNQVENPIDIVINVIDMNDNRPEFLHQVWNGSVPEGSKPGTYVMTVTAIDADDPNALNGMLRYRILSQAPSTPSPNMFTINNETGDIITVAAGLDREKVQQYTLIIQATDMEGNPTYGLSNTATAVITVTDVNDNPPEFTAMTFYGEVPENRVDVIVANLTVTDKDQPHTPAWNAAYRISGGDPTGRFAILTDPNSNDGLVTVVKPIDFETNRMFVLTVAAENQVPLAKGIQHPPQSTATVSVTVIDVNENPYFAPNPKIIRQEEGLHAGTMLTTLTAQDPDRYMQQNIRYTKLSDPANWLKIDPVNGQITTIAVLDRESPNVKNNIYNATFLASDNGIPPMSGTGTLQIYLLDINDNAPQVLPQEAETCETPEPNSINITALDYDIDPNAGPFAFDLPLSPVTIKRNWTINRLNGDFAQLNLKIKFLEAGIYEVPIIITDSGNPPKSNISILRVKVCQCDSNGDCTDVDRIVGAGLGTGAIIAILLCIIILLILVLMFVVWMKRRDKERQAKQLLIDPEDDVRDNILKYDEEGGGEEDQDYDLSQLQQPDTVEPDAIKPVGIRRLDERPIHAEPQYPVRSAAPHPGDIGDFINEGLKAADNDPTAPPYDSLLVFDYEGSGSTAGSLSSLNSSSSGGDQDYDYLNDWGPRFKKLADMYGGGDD

Target: FLAG-tagged human DGCR2 (FLAG-hDGCR2) (human) (UniProt P98153)
Assay: co-IP; HEK 293T cells co-transfected; lysates (IP buffer: 20 mM Tris pH 7.6, 50 mM NaCl, 1 mM EDTA, 1 mM NaF, 0.5% Nonidet P-40) immunoprecipitated with anti-FLAG antibody at 4 °C; blotted with anti-GFP and anti-FLAG

binding: no binding
Substance: N-Cadherin-GFP (from UniProt P15116)
